Earlier results as cited in patent US12220421B2, “Inhibitors of C. difficile spore germination” (THE BOARDS OF REGENTS OF THE NEVADA SYSTEM OF HIGHER …, priority 2021, dated 2025).
At least one compound was matched to its structure with a doubt left.

Target: C. difficile spore germination
Settings: literature values; read-out: Ki, inhibition of germination; cited from earlier work

C[C@H](CCC(=O)O)[C@H]1CC[C@H]2[C@@H]3[C@@H](O)C[C@@H]4C[C@H](O)CC[C@]4(C)[C@H]3CC[C@]12C [ursodeoxycholic acid]
Ki: 213 µM

C[C@H](CCC(=O)O)[C@H]1CC[C@H]2[C@@H]3CC[C@@H]4C[C@H](O)CC[C@]4(C)[C@H]3CC[C@]12C [lithocholate]
Ki: 104 µM
